According to paper PMC11249239 (PLOS ONE, 2024):
Like-named read-outs stand apart in the source and are kept apart here.

Experiments:
Format in all cases: cell-based
MCF7 (ER+) cells = test: Cell growth inhibition (CCK8 cytotoxicity assay), MCF7; details: Homo sapiens, 48 h treatment, read-out: Average EC50 ± SD, cell growth inhibition
T47D (ER+) cells = test: Cell growth inhibition (CCK8 cytotoxicity assay), T47D; details: Homo sapiens, 48 h treatment, read-out: Average EC50 ± SD, cell growth inhibition
Text: (§1) Prism-GraphPad software was used to analyze data.

MDA-MB-231 (TNB) cells = test: Cell growth inhibition (CCK8 cytotoxicity assay), MDA-MB-231; details: 48 h treatment, read-out: Average EC50 ± SD, cell growth inhibition
Text: as §1

HCC-1937 (TNB) cells = test: Cell growth inhibition (CCK8 cytotoxicity assay), HCC-1937; details: Homo sapiens, HCC1937, 48 h treatment, read-out: Average EC50 ± SD, cell growth inhibition
Text: as §1

Structure (SMILES): O=C(CCCCCCC(=O)Nc1ccccc1)NO [SAHA, reference compound]
- EC50 (MCF7 (ER+) cells): 3.65 ± 0.151 µM
- EC50 (T47D (ER+) cells): 3.9 ± 0.469 µM
- EC50 (MDA-MB-231 (TNB) cells): 2.41 ± 1.51 µM
- EC50 (MDA-MB-231 (TNB) cells; Homo sapiens, MDA-MB-231, 48 h): 2.4 µM
- EC50 (HCC-1937 (TNB) cells): 11.3 ± 1.87 µM
